The test system of series [1] is azide functionalized antibody X. The series is described as follows: Conjugation of DBCO-PEG (5 kDa) and DBCO-Cy5 to azide functionalized antibody X samples. Particulars: for degree of PEGylation: reducing SDS-PAGE, heavy chain of Antibody X.
A further series has as its system antibody X. The series is described as follows: Dual labelling of antibody X at Q295/N297 with MTGase and galactosyltransferase, MS analysis. It counts as biochemical. Particulars: for extent of reaction / conversion: dual functionalized antibody X.

For `CC1(C)C(/C=C/C=C/C=C2/N(CCCCCC(=O)NCCC(=O)N3Cc4ccccc4C#Cc4ccccc43)c3ccc(S(=O)(=O)O)cc3C2(C)C)=[N+](CCCS(=O)(=O)[O-])c2ccc(S(=O)(=O)O)cc21` [DBCO-Cy5], in series [1] (EndoS process, MS), the DoL is recorded as 1.9 and the “incorporation of the DBCO-Cy5” value came out at 94%. Besides, in series [1] (PNGase F process, MS), the DoL is 1.5 and the “efficiency at the DBCO-Cy5 conjugation step” value is on record as 74%.

Turning to DBCO-AF488, the “extent of reaction / conversion” value in the series on antibody X was “complete conversion”.

Take DBCO-PEG (5 kDa): the “degree of PEGylation” value was determined as 1.5 in series [1] (EndoS process) and 1.3 in series [1] (PNGase F process).

For the compound TCO-Cy5, in the series on antibody X, the “extent of reaction / conversion” value is “complete conversion”.

In turn, amine-PEG (4u)-methyltetrazine had an incorporation level with antibody X (MTGase mediated conjugation to EndoS trimmed antibody X) of 90%.

The values above are taken from patent publication US20250163488A1, “CONJUGATION METHOD INVOLVING A TRANSGLUTAMINASE AT THE FC REGION COMPRISING A TRIMMED N-GLYCAN” (ADC THERAPEUTICS SA, priority 2022, published 2025).
